Some results were stated once for a whole list of compounds, not compound by compound.
Target: T1, hYAK3 (Homo sapiens, UniProt O43781)
T1 construct: GST (N); His6 (C); made in house; host or cells: baculovirus expression system in Sf9 cells
T1 sequence (O43781 142-526): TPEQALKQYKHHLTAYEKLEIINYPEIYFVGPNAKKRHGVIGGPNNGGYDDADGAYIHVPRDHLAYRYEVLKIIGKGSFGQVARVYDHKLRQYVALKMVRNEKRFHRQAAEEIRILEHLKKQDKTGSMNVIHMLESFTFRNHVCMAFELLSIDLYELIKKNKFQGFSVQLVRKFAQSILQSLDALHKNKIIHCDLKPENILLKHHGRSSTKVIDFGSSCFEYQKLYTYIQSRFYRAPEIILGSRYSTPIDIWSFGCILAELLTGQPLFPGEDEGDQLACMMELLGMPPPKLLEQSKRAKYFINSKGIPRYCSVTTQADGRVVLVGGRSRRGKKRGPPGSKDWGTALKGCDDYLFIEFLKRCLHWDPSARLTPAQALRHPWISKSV
Test: YAK3 Scintillation Proximity Assay using Ser164 of myelin basic protein as the phosphoacceptor (kinase assay of purified hYAK3)
Type: biochemical
Details: purified GST-hYak3-His6 4 nM; 1 μM ATP; 4 μM Ser164 peptide; 2 hours at room temperature; pIC50=-Log10(K)
Procedure: Substrate phosphorylation assays were carried out as follows:
YAK3 Scintillation Proximity Assays Using Ser164 of Myelin Basic Protein as the Phosphoacceptor
The source of Ser164 substrate peptide The biotinylated Ser164, S164A peptide(LGGRDSRAGS*PMARRKK-ahx-Biotin-Amide), sequence derived from the C-terminus of bovine myelin basic protein (MBP) with […] substituted as Ala 162, was purchased from California Peptide Research Inc. (Napa, Calif.), and its purity was determined by HPLC. Phosphorylation occurs at position 164 (marked S* above). The calculated molecular mass of the peptide is 2166 dalton. Solid sample was dissolved at 10 mM in DMSO, aliquoted, and stored at −20 C until use.
hYAK3: Glutathione-S-Transferase (GST)-hYak3-His6 containing amino acid residues 142-526 of human YAK3 (aa 142-526 of SEQ ID NO 2. in U.S. Pat. No. 6,323,318) was purified from baculovirus expression system in Sf9 cells using Glutathione Sepharose 4B column chromatography followed by Ni-NTA-Agarose column chromatography. Purity greater than 65% typically is achieved. Samples, in 50 mM Tris, 150 mM NaCl, 10% glycerol, 0.1% Triton, 250 mM imidazole, 10 mM-mercapto ethanol, pH 8.0 were stored at −80 C until use.
Kinase assay of purified hYAK3: Assays were performed in 96 well (Costar, Catalog No. 3789) or 384 well plates (Costar, Catalog No. 3705). Reaction (in 10, 20, 25, or 40 μl volume) mix contained in final concentrations 25 mM Hepes buffer, pH 7.4; 10 mM MgCl2; 10 mM-mercapto ethanol; 0.0025% Tween-20; 1 μM ATP, 0.1 μCi of [γ-^33P]ATP; purified hYAK3 (3.6-14 ng/assay; 4 nM final); and 4 μM Ser164 peptide. Compounds, titrated in DMSO, were evaluated at concentrations ranging from 50 μM to 0.2 nM. […] Reactions were incubated for 2 hours at room temperature and were stopped by addition of Streptavidin Scintillation Proximity beads (Amersham Pharmacia Biotech, Catalog No. RPNQ 0007 or Amersham Biosciences Catalog no. RPQ0626) in PBS, pH 7.4, 150 mM EDTA, and 0.1% Triton X-100. Under the assay conditions defined above, the Km (apparent) for ATP is determined to be 7.2+/−2.4 μM.
The data for compound dose responses were plotted as % Inhibition, calculated with the data reduction formula 100*(1−[(U1−C2)/(C1−C2)]), versus concentration of compound, where U is the unknown value, C1 is the average control value obtained for DMSO, and C2 is the average control value obtained for 0.05M EDTA. Data were fitted to the curve described by: y=((Vmax*x)/(K+x)) where Vmax is the upper asymptote and K is the IC50. The results for each compound were recorded as pIC50 calculated as follows: pIC50=−Log 10(K).

Row | pIC50 | SMILES
1 | > 7 | CS(=O)(=O)Nc1ccc(Cl)c(NC2=NC(=O)/C(=C/c3ccc4ncccc4c3)S2)c1 [Example 5, N-(4-chloro-3-{[(5Z)-4-oxo-5-(6-quinolinylmethylidene)-4,5-dihydro-1,3-thiazol-2-yl]amino}phenyl)methanesulfonamide]
2 | > 7 | CC(C)C(=O)Nc1ccc(Cl)c(NC2=NC(=O)/C(=C/c3ccc4nccnc4c3)S2)c1 [Example 4, N-(4-chloro-3-{[(5Z)-4-oxo-5-(6-quinoxalinylmethylidene)-4,5-dihydro-1,3-thiazol-2-yl]amino}phenyl)-2-methylpropanamide]
3 | > 7 | O=C1N=C(Nc2cc(-c3ccccn3)ccc2Cl)S/C1=C\c1ccc2ncccc2c1 [Example 2, (5Z)-2-{[2-Chloro-5-(2-pyridinyl)phenyl]amino}-5-(6-quinolinylmethylidene)-1,3-thiazol-4(5H)-one]
4 | > 7 | O=C1N=C(Nc2cc(NC(=O)C3CCC3)ccc2Cl)S/C1=C\c1ccc2ncccc2c1 [Example 3, N-(4-Chloro-3-{[(5Z)-4-oxo-5-(6-quinolinylmethylidene)-4,5-dihydro-1,3-thiazol-2-yl]amino}phenyl)cyclobutanecarboxamide]

Reference: patent US20090203692A1, “NOVEL CHEMICAL COMPOUNDS” (SMITHKLINE BEECHAM CORPORATION, priority 2005, published 2009)
